Literature values as cited in patent US20260224573A1, “CRYSTAL FORM OF COMPOUND, AND PREPARATION METHOD AND USE THEREOF” (FELICAMED BIOTECHNOLOGY CO., LTD., priority 2023, published 2026).
At least one structure is not confirmed: it was looked up by name or label, or the drawing left a doubt.

Chains of the proteins cited; added tags and fusions are not shown. Residues count along the entry.
UniProt P08581, 25-1390: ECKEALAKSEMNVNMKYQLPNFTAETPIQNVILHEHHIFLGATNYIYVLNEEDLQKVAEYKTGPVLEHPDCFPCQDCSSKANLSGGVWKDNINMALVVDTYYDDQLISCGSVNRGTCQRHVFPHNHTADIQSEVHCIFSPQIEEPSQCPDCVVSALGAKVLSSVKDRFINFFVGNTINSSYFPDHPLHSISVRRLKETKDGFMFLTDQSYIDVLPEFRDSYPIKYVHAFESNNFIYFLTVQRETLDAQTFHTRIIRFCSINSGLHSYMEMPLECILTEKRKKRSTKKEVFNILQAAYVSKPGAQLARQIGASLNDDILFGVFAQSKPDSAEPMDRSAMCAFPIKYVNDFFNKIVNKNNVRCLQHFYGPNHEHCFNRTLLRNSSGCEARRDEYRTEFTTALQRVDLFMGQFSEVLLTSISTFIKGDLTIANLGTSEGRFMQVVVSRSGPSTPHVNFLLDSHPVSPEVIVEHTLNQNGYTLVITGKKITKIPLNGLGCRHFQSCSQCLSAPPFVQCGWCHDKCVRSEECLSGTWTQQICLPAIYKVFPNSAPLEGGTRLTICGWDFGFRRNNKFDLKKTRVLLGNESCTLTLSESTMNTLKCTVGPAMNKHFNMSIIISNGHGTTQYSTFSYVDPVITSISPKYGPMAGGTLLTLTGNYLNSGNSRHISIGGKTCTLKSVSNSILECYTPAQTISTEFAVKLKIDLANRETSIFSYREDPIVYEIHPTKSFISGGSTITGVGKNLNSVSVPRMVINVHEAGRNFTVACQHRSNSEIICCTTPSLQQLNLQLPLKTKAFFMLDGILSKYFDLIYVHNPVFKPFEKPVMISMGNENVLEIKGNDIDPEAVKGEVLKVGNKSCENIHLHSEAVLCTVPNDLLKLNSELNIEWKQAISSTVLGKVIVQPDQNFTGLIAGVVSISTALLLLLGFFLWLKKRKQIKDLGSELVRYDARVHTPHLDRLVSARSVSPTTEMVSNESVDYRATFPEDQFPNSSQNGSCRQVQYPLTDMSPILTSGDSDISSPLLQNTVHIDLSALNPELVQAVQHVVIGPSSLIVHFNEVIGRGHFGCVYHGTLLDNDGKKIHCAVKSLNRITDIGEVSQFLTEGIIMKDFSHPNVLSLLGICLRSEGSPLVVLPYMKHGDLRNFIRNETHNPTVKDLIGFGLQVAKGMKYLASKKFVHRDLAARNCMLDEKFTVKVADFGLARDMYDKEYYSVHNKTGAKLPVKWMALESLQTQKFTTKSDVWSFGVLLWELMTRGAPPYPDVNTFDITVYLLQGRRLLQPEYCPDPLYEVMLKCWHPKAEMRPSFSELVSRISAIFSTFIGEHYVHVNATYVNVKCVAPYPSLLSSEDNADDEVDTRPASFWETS
UniProt O96017, whole entry, species assumed: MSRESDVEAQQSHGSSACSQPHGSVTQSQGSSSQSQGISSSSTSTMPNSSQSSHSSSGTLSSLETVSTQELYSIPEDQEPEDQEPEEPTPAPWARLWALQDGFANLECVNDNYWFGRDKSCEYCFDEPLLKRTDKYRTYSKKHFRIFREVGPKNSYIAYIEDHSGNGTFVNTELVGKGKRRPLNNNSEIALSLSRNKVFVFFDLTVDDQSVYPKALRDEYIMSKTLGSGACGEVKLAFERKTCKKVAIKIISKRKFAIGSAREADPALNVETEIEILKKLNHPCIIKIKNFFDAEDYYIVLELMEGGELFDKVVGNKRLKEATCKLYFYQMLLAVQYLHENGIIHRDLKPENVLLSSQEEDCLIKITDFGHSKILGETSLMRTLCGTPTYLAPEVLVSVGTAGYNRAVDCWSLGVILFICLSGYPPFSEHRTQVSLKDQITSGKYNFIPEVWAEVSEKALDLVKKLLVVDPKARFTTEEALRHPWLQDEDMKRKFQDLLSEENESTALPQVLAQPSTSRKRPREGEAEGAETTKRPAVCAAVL

Tests used:
c-Met = c-Met (Homo sapiens, UniProt P08581); details: cited from earlier work
Chk2 = Chk2 (Homo sapiens, UniProt O96017); details: cited from earlier work

In the case of `CCS(=O)(=O)N1CC(CC#N)(n2cc(-c3ncnc4[nH]ccc34)cn2)C1` [Baricitinib], the “inhibitory effect on c-Met” value (c-Met) is given as “no inhibitory effect” and the “inhibitory effect on Chk2” value (Chk2) is given as “no inhibitory effect”.
